Test results: the M2OR odorant receptor database
The list shows a part of the results, in another mix than the full data. Calls are pooled over several reports, among them a noisy single-well screen. The list shows a part of the results.

Molecular target: T1, OR14J1 (Homo sapiens) (UniProt Q9UGF5)
T1 sequence (whole entry): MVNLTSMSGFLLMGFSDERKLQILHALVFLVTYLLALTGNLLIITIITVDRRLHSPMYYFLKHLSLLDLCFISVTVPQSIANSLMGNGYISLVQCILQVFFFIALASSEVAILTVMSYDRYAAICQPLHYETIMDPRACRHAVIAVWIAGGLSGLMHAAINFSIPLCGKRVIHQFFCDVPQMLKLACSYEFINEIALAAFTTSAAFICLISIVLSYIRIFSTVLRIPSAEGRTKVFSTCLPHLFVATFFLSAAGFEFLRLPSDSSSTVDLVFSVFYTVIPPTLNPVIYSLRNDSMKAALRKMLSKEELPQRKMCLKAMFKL
Conditions: stereoisomer not certain
Outline: (§1)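 Values were gathered from published papers (main text and supplementary material), with extra details requested from the original authors when needed, and checked for typos and inconsistencies. Each receptor–molecule pair is called responsive (active) if the original authors judged the measured signal statistically different from baseline, and non-responsive (inactive) otherwise. Assay methods varied by source, often transient mammalian cell-line luciferase assays. Recorded details include cell line, G-protein, co-transfected protein and tags.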

Odorant receptor agonist call, active:
CC1COCc2cc3c(cc21)C(C)(C)C(C)C3(C)C (stereo not given)

Odorant receptor agonist call, inactive:
CCCCCCCC=CC=O, CC(=O)OC1CC2CCC1(C)C2(C)C (stereo not given), CCC=CCCO, CCCCCC(=O)O, C=CCc1ccc(OC)c(OC)c1, CCCCCCCCOC(C)=O, O=C1CCCCCCCCCCCCCCO1, CCC1(O)C2(C)CCC(C2)C1(C)C (stereo not given), CCCCO, C=CCc1ccc(OC(C)=O)c(OC)c1, c1cnccn1, CCCCCOC(C)=O, COc1cc(C)ccc1O, c1ccc(Oc2ccccc2)cc1, CCCCCCOC(=O)CCC, CC1=CCC(C(C)(C)O)CC1 (stereo not given), O=C1CCCCCCCCCCCC(=O)OCCO1, COC(=O)c1ccccc1O, O=C1CCCCC1, CC(C)CC(=O)O, CC1=NC(C)SC1C (stereo not given), CCCCCCCCCCC=O

Molecular target: T2, OR1A1 (Homo sapiens) (UniProt Q9P1Q5)
T2 sequence (whole entry): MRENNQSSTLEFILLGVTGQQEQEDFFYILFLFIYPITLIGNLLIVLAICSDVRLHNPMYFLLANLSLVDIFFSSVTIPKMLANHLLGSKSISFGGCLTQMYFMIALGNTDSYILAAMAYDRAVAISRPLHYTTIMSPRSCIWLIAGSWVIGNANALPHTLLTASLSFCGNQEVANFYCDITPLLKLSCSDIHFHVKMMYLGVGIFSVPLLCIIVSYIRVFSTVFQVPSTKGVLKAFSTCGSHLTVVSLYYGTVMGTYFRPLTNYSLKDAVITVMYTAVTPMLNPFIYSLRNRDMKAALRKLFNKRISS
Conditions: stereoisomer not certain
Outline: as §1

Odorant receptor agonist call, active:
CCCCCCCCOC(C)=O, C=C(C)C1CC=C(C)C(=O)C1 (stereo not given), c1ccc(Oc2ccccc2)cc1, CC1COCc2cc3c(cc21)C(C)(C)C(C)C3(C)C (stereo not given)

Odorant receptor agonist call, inactive:
CCCCCCCC=CC=O, CC(=O)OC1CC2CCC1(C)C2(C)C (stereo not given), CCC=CCCO, CCCCCC(=O)O, C=CCc1ccc(OC)c(OC)c1, C=CCc1ccc(O)c(OC)c1, O=C1CCCCCCCCCCCCCCO1, CCC1(O)C2(C)CCC(C2)C1(C)C (stereo not given), CC(C)(O)CCCC1=CCC(C=O)CC1 (stereo not given), CCCCO, CCCCCCCCC=O, C=CCc1ccc(OC(C)=O)c(OC)c1, c1cnccn1, CCCCCOC(C)=O, COc1cc(C)ccc1O, CCCCCCOC(=O)CCC, CC1=CCC(C(C)(C)O)CC1 (stereo not given), O=C1CCCCCCCCCCCC(=O)OCCO1, COC(=O)c1ccccc1O, O=C1CCCCC1, CC(C)CC(=O)O, CC1=NC(C)SC1C (stereo not given), CCCCCCCCCCC=O
